PubChem BioAssay AID686937 – Drosophila RNAi Screening Center, 2013

Screen: 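Genes whose loss weakens secretory pathway function in fly cells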 (primary screen)
Cells: Drosophila S2 cells expressing secreted horseradish peroxidase
Knock-down reagent: long dsRNA against Drosophila genes
Duration: about 5.5 days (5 days dsRNA, then 12 h reporter induction)
Challenge: reporter expression induced after 5 days of dsRNA, read 12 h later; inducer not stated
Detection: 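Chemiluminescent measurement of peroxidase in the medium 12 h after reporter induction, following 5 days of dsRNA, given as a z-score per plate; higher means more secretion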
Direction: z-score: higher = more reporter secreted into medium
In all, the deposit lists about 23,000 reagents; this is an unselected part of those that have a named target and a result. 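Reduced-secretion tags in replicate 1 do not always agree with the z-scores; no criterion for assigning the tags was given.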 Names joined by + are all predicted targets of the reagent. Further read-outs or replicates are left out here. Not given: the amount of reagent.

predicted target,DRSC id,"z-score, replicate 1","z-score, replicate 2"
Spn77Ba (Serpin 77Ba),DRSC10693,0.14,0.19
hlk (hulk),DRSC05021,0.02,0.2
hlk (hulk),DRSC05022,-0.12,-0.08
gammaTub37C (gamma-Tubulin at 37C),DRSC03535,0.21,0.22
nudE,DRSC09000,0.62,0.38
nudE,DRSC10962,0.03,-0.04
CG33474,DRSC05218,0.03,-0.22
CG31798,DRSC01702,0.39,0.22
Mst57Db (Male-specific RNA 57Db),DRSC21551,0.73,0.57
TwdlX (TweedleX),DRSC19151,0.02,-0.48
Dg (Dystroglycan),DRSC06718,0.15,0.07
PolrMT (RNA polymerase mitochondrial),DRSC00660,-0.04,-0.84
tal-1A + tal-2A + tal-AA + 1 more,DRSC12992,0.12,0.21
Cyt-c1 (Cytochrome c1),DRSC10447,0.13,0.11
CG7720,DRSC16306,0.43,0.37
CG7720,DRSC16307,-1.17,-0.71
SkpE (SKP1-related E),DRSC19431,0.73,-6.45
ARY (retired record),DRSC20867,-0.14,-0.77
CG11180,DRSC06055,0.28,0.26
CG12024,DRSC08229,0.42,0.27
CG15147,DRSC02447,0.24,0.33
CG15147,DRSC02448,0.08,0.05
CG18870,DRSC04313,-0.22,0.18
CG17145,DRSC10247,-1.5,0.61
CG43349,DRSC00039,0.46,0.59
CG42354 + CG42353,DRSC20172,-0.79,-0.79
CG8854,DRSC07288,-0.15,0.13
Eaf (ELL-associated factor),DRSC05050,-4.24,
Eaf (ELL-associated factor),DRSC06052,0.1,0.13
Eaf (ELL-associated factor),DRSC22028,0.38,0.17
Cyp308a1 (Cytochrome P450 308a1),DRSC20238,-0.03,0.41
ND-B16.6 (NADH dehydrogenase (ubiquinone) B16.6 subunit),DRSC18306,0.38,0.22
ND-B16.6 (NADH dehydrogenase (ubiquinone) B16.6 subunit),DRSC22600,-0.03,-0.17
CG34451,DRSC09388,0.49,0.08
CG34451,DRSC09389,0.57,0.17
Dhpr (Dihydropteridine reductase),DRSC11135,0.03,-0.05
mus301 (mutagen-sensitive 301),DRSC10939,0.27,-0.39
CG7675,DRSC16280,0.24,0.22
AMPKalpha (AMP-activated protein kinase alpha subunit),DRSC18714,0.8,0.54
pira (pirate),DRSC19494,0.43,-0.18
neo (neyo),DRSC16316,0.37,0.38
CG3419 (retired record),DRSC04368,0.15,0.14
CG3419 (retired record),DRSC04369,0.1,0.18
CG9667,DRSC16535,-1.87,-1.66
CG34284,DRSC14773,0.02,0.34
CG8509,DRSC20109,0.27,0.11
CG15564,DRSC15102,-0.05,0.26
CG13160,DRSC06284,0.59,0.38
slow (slowdown),DRSC08589,0.34,0.45
slow (slowdown),DRSC08590,-0.07,0.35
CG7239,DRSC03038,-0.22,-1.25
dind (diamond),DRSC16294,0.2,0.34
P5CDh1 (delta-1-Pyrroline-5-carboxylate dehydrogenase 1),DRSC11801,0.49,0.56
Ppm1,DRSC08260,0.59,0.39
Prp19 (Pre-RNA processing factor 19),DRSC07434,-2.4,-1.16
CG32668,DRSC18879,-0.05,0.4
lft (lowfat),DRSC02236,0.16,-0.11
dlg1 (discs large 1),DRSC18895,-2.23,-2.43
dlg1 (discs large 1),DRSC18896,0.78,0.6
dlg1 (discs large 1),DRSC19767,-0.23,-0.83
dlg1 (discs large 1),DRSC20324,0.3,0.45
Pli (Pellino),DRSC16792,0.07,0.26
CG13843,DRSC14693,-0.74,0.59
CG18814,DRSC10347,0.14,0.27
ry (rosy),DRSC17048,0.44,0.45
CG14142,DRSC10145,0.34,0.08
Sirt7 (Sirtuin 7),DRSC14294,0.54,0.69
CG9377,DRSC03217,0.32,0.23
CG13562,DRSC04200,-0.03,0.42
Ggt-1 (gamma-glutamyl transpeptidase),DRSC19993,0.33,0.32
Synd (Syndapin),DRSC15116,0.34,-0.09
slbo (slow border cells),DRSC04716,-1.18,-0.91
CG17110,DRSC15173,0.23,0.35
CG43075,DRSC19074,0.17,0.51
"SdhB (Succinate dehydrogenase, subunit B (iron-sulfur))",DRSC05018,0.01,0.54
"SdhB (Succinate dehydrogenase, subunit B (iron-sulfur))",DRSC21367,1.35,-0.6
TwdlG (TweedleG),DRSC12229,0.26,0
CG5181,DRSC02825,0.42,0.41
CG9630,DRSC16527,0.23,0.28
mtgo (miles to go),DRSC02245,0.12,0.53
mtgo (miles to go),DRSC02246,-2.58,-0.37
mtgo (miles to go),DRSC02769,-0.34,0.13
mtgo (miles to go),DRSC21392,0.01,0.13
mtgo (miles to go),DRSC21743,-0.36,-1.24
CG12268,DRSC14491,0.4,0.42
dom (domino),DRSC04558,-1.88,-1.37
dom (domino),DRSC04559,-0.33,-0.51
CG5623,DRSC15848,0.4,-0.08
Gr22a (Gustatory receptor 22a),DRSC22283,-1.29,0.16
CG11693,DRSC14353,0.07,0.6
Charon,DRSC00679,0.26,0.21
CG10418,DRSC09720,-0.31,-0.27
CG34328,DRSC19256,-0.09,-2.66
dre4,DRSC08714,-0.05,-0.07
CG12581,DRSC12206,0.11,0.23
CG12581,DRSC12207,0.21,0.42
CG15142,DRSC02443,-0.19,0.22
Rab23,DRSC12305,0.34,-0.36
CG7953,DRSC01902,0.29,0.02
NELF-B,DRSC17734,0.76,0.58
CG34450,DRSC17822,0.44,0.38
Tehao,DRSC03449,0.47,0.24
eIF3g2 (eukaryotic translation initiation factor 3 subunit g2),DRSC14275,0.21,0.17
CG15458,DRSC20529,-0.9,-0.05

Taken from above:
For “z-score, replicate 2”, CG7239 [DRSC03038] shows -1.25
Result of Sirt7 (Sirtuin 7) [DRSC14294] in “z-score, replicate 1”: 0.54
dlg1 (discs large 1) [DRSC18896], z-score, replicate 2: 0.6
CG12581 [DRSC12207], z-score, replicate 1 = 0.21
CG7720 [DRSC16307], z-score, replicate 2: -0.71
CG33474 [DRSC05218], z-score, replicate 1 = 0.03
